Test results: PMC12745842
No constants are given. Whether binding was seen depends on the method and setting. For part of these data: In cells and extracts the contact can be indirect. Some entries that bind do so weakly or less than the wild type. Each block holds one substance with its values, some of them ahead of it.

Amino acid sequences for entries named in this document (tags omitted).
UniProt O60260: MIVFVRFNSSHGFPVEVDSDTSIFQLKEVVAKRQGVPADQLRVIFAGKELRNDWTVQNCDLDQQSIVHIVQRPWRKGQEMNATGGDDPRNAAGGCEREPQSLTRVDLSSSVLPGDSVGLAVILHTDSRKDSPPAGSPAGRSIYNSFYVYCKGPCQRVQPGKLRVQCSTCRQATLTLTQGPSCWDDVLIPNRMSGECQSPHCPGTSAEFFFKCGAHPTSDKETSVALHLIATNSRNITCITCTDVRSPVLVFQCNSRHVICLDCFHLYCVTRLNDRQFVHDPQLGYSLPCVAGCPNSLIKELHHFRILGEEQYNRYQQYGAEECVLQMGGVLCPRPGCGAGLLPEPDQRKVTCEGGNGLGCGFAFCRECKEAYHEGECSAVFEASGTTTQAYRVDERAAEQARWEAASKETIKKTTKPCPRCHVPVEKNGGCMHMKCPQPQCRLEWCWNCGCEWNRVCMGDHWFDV
UniProt Q86U44: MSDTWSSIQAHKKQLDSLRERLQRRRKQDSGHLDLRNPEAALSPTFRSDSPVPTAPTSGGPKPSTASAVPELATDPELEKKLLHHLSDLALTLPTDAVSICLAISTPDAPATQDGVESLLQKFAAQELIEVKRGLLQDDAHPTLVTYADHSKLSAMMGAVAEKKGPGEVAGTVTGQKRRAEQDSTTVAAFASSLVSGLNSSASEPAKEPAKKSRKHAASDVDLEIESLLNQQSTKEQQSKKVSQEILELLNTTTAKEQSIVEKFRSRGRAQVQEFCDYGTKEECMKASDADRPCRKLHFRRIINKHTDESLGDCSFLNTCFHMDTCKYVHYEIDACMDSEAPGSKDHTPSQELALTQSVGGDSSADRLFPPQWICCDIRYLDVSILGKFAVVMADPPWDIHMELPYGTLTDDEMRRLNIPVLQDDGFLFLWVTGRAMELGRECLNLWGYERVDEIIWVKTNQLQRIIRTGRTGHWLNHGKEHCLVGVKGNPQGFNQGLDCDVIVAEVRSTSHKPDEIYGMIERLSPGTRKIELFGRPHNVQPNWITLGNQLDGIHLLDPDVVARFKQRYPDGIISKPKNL

What was measured:
Myc-PRKN = Myc-PRKN (UniProt O60260); assay: pull-down; recombinant His-METTL3 and Myc-PRKN incubated with Myc-Beads in RIPA buffer (1% NP-40, 0.25% sodium deoxycholate, 50 mmol/L Tris-HCl pH 7.4, 150 mmol/L NaCl) at 4°C for 1 h; Myc peptide as control; washed four times; Western blot with anti-METTL3 and anti-PRKN; both purified
GFP-PRKN = GFP-PRKN (UniProt O60260); assay: co-IP; HEK293T cells transfected with the tagged bait (GFP-PRKN or Flag-METTL3) or empty vector; lysed in RIPA buffer (50 mM Tris pH 7.4, 0.25% sodium deoxycholic acid, 1% Triton, 150 mM NaCl, 1 mM EDTA); anti-GFP beads or anti-Flag beads; beads washed five times with RIPA; Western blot
[1] = molecular target: Flag-METTL3 (human (amplified from HEK293T mRNA)) (UniProt Q86U44); assay: as above

- binding (Myc-PRKN): binds
Substance: His-METTL3 (from UniProt Q86U44 1-580)

- binding (GFP-PRKN): binds
Substance: METTL3 (endogenous, HEK293T) (from UniProt Q86U44 1-580)

- binding [1]: binds
Substance: PRKN (endogenous, HEK293T) (from UniProt O60260 1-465)
